In PMC7000732, “Bridging non-overlapping reads illuminates high-order epistasis between distal protein sites in a GPCR” (Nature Communications, 2020):
Residue numbers refer to the chain shown, from its start. Names may count otherwise.

B1: TGRIA: Variant GRIA (T88/Q89G/W246R/L249I/H250A) of human adenosine A2a receptor (protein, UniProt P29274 1-412, looked up, variant Q89G W246R L249I H250A)
Adenosine receptor A2a: MPIMGSSVYITVELAIAVLAILGNVLVCWAVWLNSNLQNVTNYFVVSLAAADIAVGVLAIPFAITISTGFCAACHGCLFIACFVLVLTGSSIFSLLAIAIDRYIAIRIPLRYNGLVTGTRAKGIIAICWVLSFAIGLTPMLGWNNCGQPKEGKNHSQGCGEGQVACLFEDVVPMNYMVYFNFFACVLVPLLLMLGVYLRIFLAARRQLKQMESQPLPGERARSTLQKEVHAAKSLAIIVGLFALCRLPIAIINCFTFFCPDCSHAPLWLMYLAIVLSHTNSVVNPFIYAYRIREFRQTFRKIIRSHVLRQQEPFKAAGTSARVLAAHGSDGEQVSLRLNGHPPGVWANGSAPHPERRPNGYALGLVSGGSAQESQGNTGLPDVELLSHELKGVCPEPPGLDDPLAQDGAGVS
B2: SLNIG: A2aR variant; letters are residues at T88, Q89, W246, L249, H250 (protein, UniProt P29274 1-412, looked up, variant T88S Q89L W246N L249I H250G)
Adenosine receptor A2a: B1 Adenosine receptor A2a with T88S, G89L, R246N, A250G

Experiment: FACS-based screen of A2aR library with deep sequencing (BRIDGE): variant enrichment
Type: cell-based, Saccharomyces cerevisiae

Molecule | fold lower abundance in the PS4 population
B1 | ~ 17 fold
B2 | ~12 fold
